This passage reports binding results from paper doi:10.1101/2021.12.13.472398.

Amino acid sequences for entries named in this document (tags omitted).
UniProt P06537: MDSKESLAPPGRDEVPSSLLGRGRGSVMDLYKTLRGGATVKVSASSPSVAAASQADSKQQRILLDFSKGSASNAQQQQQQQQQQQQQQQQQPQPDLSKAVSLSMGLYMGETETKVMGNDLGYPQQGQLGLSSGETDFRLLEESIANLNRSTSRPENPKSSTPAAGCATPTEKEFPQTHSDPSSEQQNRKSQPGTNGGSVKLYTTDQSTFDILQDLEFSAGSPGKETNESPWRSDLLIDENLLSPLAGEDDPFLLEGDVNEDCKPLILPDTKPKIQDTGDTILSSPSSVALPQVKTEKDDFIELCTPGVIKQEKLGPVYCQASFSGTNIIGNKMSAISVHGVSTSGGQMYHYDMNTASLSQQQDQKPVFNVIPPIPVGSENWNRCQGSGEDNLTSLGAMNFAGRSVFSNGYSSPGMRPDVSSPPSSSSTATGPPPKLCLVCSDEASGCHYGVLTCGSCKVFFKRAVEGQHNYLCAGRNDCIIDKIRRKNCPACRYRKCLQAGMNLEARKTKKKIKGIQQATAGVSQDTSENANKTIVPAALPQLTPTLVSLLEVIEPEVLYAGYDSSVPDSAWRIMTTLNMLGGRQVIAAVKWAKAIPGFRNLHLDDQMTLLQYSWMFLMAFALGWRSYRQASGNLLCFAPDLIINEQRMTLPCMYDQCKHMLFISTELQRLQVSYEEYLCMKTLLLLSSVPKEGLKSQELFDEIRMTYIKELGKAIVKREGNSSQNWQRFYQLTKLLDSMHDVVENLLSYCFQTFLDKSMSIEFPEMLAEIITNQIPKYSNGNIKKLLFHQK
UniProt Q3TKT4: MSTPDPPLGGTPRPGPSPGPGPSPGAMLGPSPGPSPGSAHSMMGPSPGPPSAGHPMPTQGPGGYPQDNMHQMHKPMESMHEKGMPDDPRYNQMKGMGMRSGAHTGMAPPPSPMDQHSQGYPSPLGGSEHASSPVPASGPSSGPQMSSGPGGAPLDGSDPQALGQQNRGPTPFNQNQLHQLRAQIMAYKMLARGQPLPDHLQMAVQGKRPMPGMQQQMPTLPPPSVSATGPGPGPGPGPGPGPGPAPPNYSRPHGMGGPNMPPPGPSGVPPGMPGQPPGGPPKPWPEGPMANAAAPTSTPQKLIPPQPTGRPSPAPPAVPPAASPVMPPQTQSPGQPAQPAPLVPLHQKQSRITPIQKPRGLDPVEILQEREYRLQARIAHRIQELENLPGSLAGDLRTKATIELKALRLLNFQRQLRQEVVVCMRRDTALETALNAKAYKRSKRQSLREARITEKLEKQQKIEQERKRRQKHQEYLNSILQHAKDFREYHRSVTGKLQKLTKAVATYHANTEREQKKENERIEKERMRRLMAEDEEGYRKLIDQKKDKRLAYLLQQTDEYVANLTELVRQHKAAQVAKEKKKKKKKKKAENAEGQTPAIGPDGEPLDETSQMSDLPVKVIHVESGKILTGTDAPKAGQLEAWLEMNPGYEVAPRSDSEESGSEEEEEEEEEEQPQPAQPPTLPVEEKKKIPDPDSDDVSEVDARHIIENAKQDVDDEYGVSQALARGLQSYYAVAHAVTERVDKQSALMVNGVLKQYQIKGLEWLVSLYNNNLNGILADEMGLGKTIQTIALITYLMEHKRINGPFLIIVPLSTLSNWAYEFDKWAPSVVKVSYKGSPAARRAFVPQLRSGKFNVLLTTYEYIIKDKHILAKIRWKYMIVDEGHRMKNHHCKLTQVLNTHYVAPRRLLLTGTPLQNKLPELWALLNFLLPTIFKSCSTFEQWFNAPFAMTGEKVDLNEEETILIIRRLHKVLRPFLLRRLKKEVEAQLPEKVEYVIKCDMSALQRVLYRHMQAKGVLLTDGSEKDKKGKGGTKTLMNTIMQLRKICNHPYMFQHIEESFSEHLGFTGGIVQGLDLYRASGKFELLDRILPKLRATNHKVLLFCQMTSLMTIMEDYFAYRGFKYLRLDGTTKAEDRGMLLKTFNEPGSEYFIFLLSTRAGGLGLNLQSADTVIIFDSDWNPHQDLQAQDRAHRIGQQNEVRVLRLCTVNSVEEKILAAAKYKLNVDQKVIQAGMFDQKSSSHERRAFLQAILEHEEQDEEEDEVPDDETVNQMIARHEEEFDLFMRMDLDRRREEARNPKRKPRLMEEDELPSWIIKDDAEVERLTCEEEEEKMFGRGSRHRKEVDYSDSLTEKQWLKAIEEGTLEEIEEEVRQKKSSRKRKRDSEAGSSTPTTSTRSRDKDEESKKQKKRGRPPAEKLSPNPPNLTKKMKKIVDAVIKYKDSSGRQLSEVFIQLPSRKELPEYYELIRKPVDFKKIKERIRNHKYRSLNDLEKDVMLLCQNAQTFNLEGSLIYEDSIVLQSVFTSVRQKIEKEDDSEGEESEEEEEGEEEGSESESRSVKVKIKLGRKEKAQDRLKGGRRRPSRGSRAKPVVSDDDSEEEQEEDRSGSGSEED
UniProt Q61466: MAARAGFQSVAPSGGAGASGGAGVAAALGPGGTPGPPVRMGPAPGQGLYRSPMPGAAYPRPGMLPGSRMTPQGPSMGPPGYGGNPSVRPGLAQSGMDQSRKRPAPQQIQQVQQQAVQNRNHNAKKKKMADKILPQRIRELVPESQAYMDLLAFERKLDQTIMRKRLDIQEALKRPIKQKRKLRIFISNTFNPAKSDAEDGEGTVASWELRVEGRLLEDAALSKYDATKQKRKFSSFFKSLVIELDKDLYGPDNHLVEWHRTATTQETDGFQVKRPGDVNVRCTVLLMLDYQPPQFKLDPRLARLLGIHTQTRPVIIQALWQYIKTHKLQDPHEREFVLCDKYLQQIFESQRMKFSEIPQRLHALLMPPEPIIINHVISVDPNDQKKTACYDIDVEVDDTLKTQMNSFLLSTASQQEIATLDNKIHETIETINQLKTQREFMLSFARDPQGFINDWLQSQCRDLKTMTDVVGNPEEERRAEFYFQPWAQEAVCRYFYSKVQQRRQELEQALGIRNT
UniProt O54941: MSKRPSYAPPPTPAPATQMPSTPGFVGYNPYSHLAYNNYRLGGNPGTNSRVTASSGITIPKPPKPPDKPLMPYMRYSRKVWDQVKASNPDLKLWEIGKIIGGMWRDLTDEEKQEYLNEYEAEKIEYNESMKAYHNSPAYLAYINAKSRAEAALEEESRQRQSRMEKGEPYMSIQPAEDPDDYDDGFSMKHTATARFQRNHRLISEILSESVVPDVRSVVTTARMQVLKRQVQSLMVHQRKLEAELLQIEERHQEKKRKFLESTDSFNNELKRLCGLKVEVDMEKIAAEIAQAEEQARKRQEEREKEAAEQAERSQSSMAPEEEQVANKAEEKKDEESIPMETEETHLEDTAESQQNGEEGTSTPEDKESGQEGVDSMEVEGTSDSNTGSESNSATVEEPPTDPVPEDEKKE

These are yes or no findings as the source states them, for the method shown. Binding seen in cells or lysates may run through a third protein. Some binding calls cover weakened binding; strength is not graded here.

In the assay the target is Glucocorticoid Receptor (mouse (endogenous in primary murine macrophages and RAW264.7)) (UniProt P06537). In words: co-IP.

Regarding “SMARCA4 (BRG1) (from UniProt Q3TKT4 1-1613) (enzyme)”, the binding entry was “binds”.

For “SMARCD1 (BAF60A) (from UniProt Q61466 1-515)”, the binding entry was “binds”.

Consider “SMARCE1 (BAF57) (from UniProt O54941 1-411)”, for which the binding result was “binds”.
